Experimental data as given in patent US20060148767A1, “Use of acyl salicylates as heat shock inducers” (priority 2001, published 2006).
Some of these results come from one statement about several compounds together.

System: human Hsp70 promoter
Assay: Heat shock induction in L 929 fibroblast cells, luciferase under human Hsp70 promoter
Type: cell-based, mouse
Conditions: 37° C.
Method: Acetyl, propanoyl, n-butanoyl, n-octanoyl and n-decanoyl salicylates were tested for their ability to induce heat shock response in an in vitro system using L 929 fibroblast cells, in which the enzyme luciferase was cloned under the transcriptional control of the human Hsp70 promoter (Proc. Natl. Acad. Sci USA, 92, 7207-7211, 1995). The effects of the mentioned compounds on heat shock induction at different temperatures have been compared using Bimoclomol as reference compound (Table 1). As reported in Table 1, propanoyl salicylate and Bimoclomol at 37° C. increase the heat shock response by 33% with respect to the control, while n-butanoyl, n-octanoyl and n-decanoyl salicylates increase it up to 67%. […] (Nature Medicine, 3, 1150-1154, 1997).

CCCCCCCC(=O)OC(=O)c1ccccc1O [Octanoyl salicylate, n-octanoyl salicylate]
increase of heat shock response with respect to the control: up to 67%
